Some results were stated once for a whole list of compounds, not compound by compound. At least one compound was matched to its structure with a doubt left.
Test system: RA-SY5Y cells
Experiment: Cell viability assay (Cell-Titer Blue) during lipid/metabolic insult
Type: cell-based, human
Conditions: 18 h treatment, Ceramide 25 μM, Cholesterol 27.5 μg/mL, Oleic Acid 30 μg/mL, data not shown
Experimental: The human neuroblastoma cell line, SH-SY5Y, was purchased from ATCC. Cell culture was performed according to manufacturer's specific guidelines. Cells were propagated in MEM containing 10% FBS. Neuronal differentiation was performed as described previously (32).
RA-SY5Y, at 2×10^4 cells/well, were seeded in 96-well microplates and treated for 48 h with a range of concentrations of MβCD, DMSO, ceramide, cholesterol or oleic acid to determine effective doses for 50-70% viability (data not shown), or in the presence of a range of concentrations of Leptin to determine effective doses to prevent cell death. Viability was assessed using the Cell-Titer Blue Viability Assay (Promega) by adding 20 μL of the reagent to each well for 4 h, and plates read by a microplate reader with fluorescence capabilities at Ex530-570 nm/Em580-620 nm. Viability was determined using a standard curve of known cell number and plotted as a percent of non-treated or vehicle control.
Doses of the lipids which decreased neuronal viability by 25-50% (Ceramide—25 μM; Cholesterol—27.5 μg/mL and Oleic Acid—30 μg/mL) after 18 h treatment (data not shown) were used to determine whether co-treatment with Leptin, an important modulator of lipid homeostasis, could attenuate the toxic effects of the insults (FIG. 1). […]

CCCCCCCCCCCCC/C=C/[C@@H](O)[C@H](CO)NC(C)=O [Ceramide, C2 ceramide, reference compound]
decrease in neuronal viability: 25-50%
